In the experiment the test system is K562 CRISPRi cells. Kind of experiment: Cell viability assay (CellTiter-Glo, 72 h) in K562 CRISPRi cells with sgRNA knockdown of FKBP12.

Where “and” joins values, the source holds several entries; their conditions need not be identical. Identical values can stand only once. The source gives many values for each of these; only a part stands here.

Consider `CO[C@H]1C[C@@H]2CC[C@@H](C)[C@@](O)(O2)C(=O)C(=O)N2CCCC[C@H]2C(=O)O[C@H]([C@H](C)C[C@@H]2CC[C@@H](OCCOCc3cn(CCOCCOCCOCCOCCOCCOCCOCCOCCC(=O)NCCCCn4nc(-c5ccc6oc(N)nc6c5)c5c(N)ncnc54)nn3)[C@H](OC)C2)CC(=O)[C@H](C)/C=C(\C)[C@@H](O)[C@@H](OC)C(=O)[C@H](C)C[C@H](C)/C=C/C=C/C=C/1C` [RapaLink-1], for which the “cell growth (K562-dCas9-KRAB)” value was 99.8702 and 102.584 and 89.7276 (FKBP12 sgRNA-1, 0.137174 nM); 100.065 and 102.132 and 87.7639 (FKBP12 sgRNA-1, 0.411523 nM); 99.1685 and 99.5332 and 97.8158 (FKBP12 sgRNA-2, 0.411523 nM); 99.0845 and 97.6857 (GAL4-4 sgRNA, 0.137174 nM); 99.3099 and 96.9455 and 97.4187 (GAL4-4 sgRNA, 0.411523 nM); 91.6598 and 92.3631 and 90.5953 (No sgRNA + 10 μM FK506, 0.411523 nM). Moreover, the “cell growth (K562-dCas9-KRAB)” value (No sgRNA, 0.411523 nM) was 98.7043 and 98.0688 and 98.468.
